Results: US20110076705A1
No constants are given. Whether binding was seen depends on the method and setting. Binding can be weak; no strength is given.

What was measured:
[1] = molecular target: Bos Taurus Pregnancy-associated glycoprotein 6 (Bos taurus); assay: immunoprecipitation and 2D9 immuno-affinity chromatography, LC-MS-MS
[2] = molecular target: Bos Taurus Pregnancy-associated glycoprotein 6 (Bos taurus); assay: 2D9 immunoaffinity column, day 55 cotyledon, LC/MS/MS
[3] = molecular target: Bos Taurus Pregnancy-associated glycoprotein 17 (Bos taurus); assay: as above
[4] = molecular target: Bos Taurus Pregnancy-associated glycoprotein 19 (Bos taurus); assay: as above
[5] = molecular target: Bos Taurus Pregnancy-associated glycoprotein 21 (Bos taurus); assay: as above
[6] = molecular target: Bos Taurus Pregnancy-associated glycoprotein 9 (Bos taurus); assay: as above
[7] = molecular target: Bos Taurus Pregnancy-associated glycoprotein 4 (Bos taurus); assay: as above
[8] = molecular target: Bos Taurus Pregnancy-associated glycoprotein 9 (Bos taurus); assay: 2D9 immuno-affinity chromatography of day 55 tissue extracts, LC-MS-MS of bands 2 & 5
[9] = molecular target: Bos Taurus Pregnancy-associated glycoprotein 6 (Bos taurus); assay: 2D9 immunoaffinity column, day 215 cotyledon, LC/MS/MS
[10] = molecular target: Bos Taurus Pregnancy-associated glycoprotein 17 (Bos taurus); assay: as above
[11] = molecular target: Bos Taurus Pregnancy-associated glycoprotein 19 (Bos taurus); assay: as above
[12] = molecular target: Bos Taurus Pregnancy-associated glycoprotein 21 (Bos taurus); assay: as above
[13] = molecular target: Bos Taurus Pregnancy-associated glycoprotein 9 (Bos taurus); assay: as above
[14] = molecular target: Bos Taurus Pregnancy-associated glycoprotein 4 (Bos taurus); assay: as above
[15] = molecular target: Bos Taurus Pregnancy-associated glycoprotein 6 (Bos taurus); assay: 2D9 immuno-affinity chromatography, LC-MS-MS
[16] = molecular target: Bos Taurus Pregnancy-associated glycoprotein 20 (Bos taurus); assay: 2D9 immuno-affinity chromatography, LC-MS-MS
[17] = molecular target: Bos Taurus Pregnancy-associated glycoprotein 21 (Bos taurus); assay: 2D9 immuno-affinity chromatography, LC-MS-MS
[18] = molecular target: Bos Taurus Pregnancy-associated glycoprotein 9 (Bos taurus); assay: 2D9 immuno-affinity chromatography, LC-MS-MS
[19] = molecular target: Bos Taurus Pregnancy-associated glycoprotein 4 (Bos taurus); assay: 2D9 immuno-affinity chromatography, LC-MS-MS
[20] = molecular target: Bos Taurus Pregnancy-associated glycoprotein 6 (Bos taurus); assay: 2D9 immunoaffinity column, day 215 caruncle, LC/MS/MS
[21] = molecular target: Bos Taurus Pregnancy-associated glycoprotein 17 (Bos taurus); assay: as above
[22] = molecular target: Bos Taurus Pregnancy-associated glycoprotein 19 (Bos taurus); assay: as above
[23] = molecular target: Bos Taurus Pregnancy-associated glycoprotein 21 (Bos taurus); assay: as above
[24] = molecular target: Bos Taurus Pregnancy-associated glycoprotein 9 (Bos taurus); assay: as above
[25] = molecular target: Bos Taurus Pregnancy-associated glycoprotein 4 (Bos taurus); assay: as above
[26] = molecular target: Bos Taurus Pregnancy-associated glycoprotein 17 (Bos taurus); assay: 2D9 immunoaffinity column on day 55 and day 215 placental tissues, LC/MS/MS
[27] = molecular target: Bos Taurus Pregnancy-associated glycoprotein 19 (Bos taurus); assay: as above
[28] = molecular target: Bos Taurus Pregnancy-associated glycoprotein 6 (Bos taurus); assay: immunoprecipitation with 2D9-coupled magnetic beads, SDS-PAGE, LC-MS-MS
[29] = molecular target: Bos Taurus Pregnancy-associated glycoprotein 17 (Bos taurus); assay: 2D9 immunoaffinity column, LC/MS/MS of gel bands
[30] = molecular target: Bos Taurus Pregnancy-associated glycoprotein 19 (Bos taurus); assay: 2D9 immunoaffinity column, LC/MS/MS of gel bands
[31] = molecular target: Bos Taurus Pregnancy-associated glycoprotein 6 (Bos taurus); assay: 2D9 immuno-affinity chromatography of day 55 tissue extracts, LC-MS-MS of bands 1, 2, 4 & 5
[32] = molecular target: Bos Taurus Pregnancy-associated glycoprotein 6 (Bos taurus); assay: 2D9 immunoaffinity column, day 215 caruncle/cotyledon combined, LC/MS/MS
[33] = molecular target: Bos Taurus Pregnancy-associated glycoprotein 17 (Bos taurus); assay: as above
[34] = molecular target: Bos Taurus Pregnancy-associated glycoprotein 21 (Bos taurus); assay: as above
[35] = molecular target: Bos Taurus Pregnancy-associated glycoprotein 9 (Bos taurus); assay: as above
[36] = molecular target: Bos Taurus Pregnancy-associated glycoprotein 4 (Bos taurus); assay: as above
[37] = molecular target: Bos Taurus Pregnancy-associated glycoprotein 20 (Bos taurus); assay: 2D9 immuno-affinity chromatography of day 55 tissue extracts, LC-MS-MS of bands 1 & 4
[38] = molecular target: Bos Taurus Pregnancy-associated glycoprotein 6 (Bos taurus); assay: 2D9 immunoaffinity column, day 55 caruncle/cotyledon combined, LC/MS/MS
[39] = molecular target: Bos Taurus Pregnancy-associated glycoprotein 17 (Bos taurus); assay: as above
[40] = molecular target: Bos Taurus Pregnancy-associated glycoprotein 19 (Bos taurus); assay: as above
[41] = molecular target: Bos Taurus Pregnancy-associated glycoprotein 9 (Bos taurus); assay: as above
[42] = molecular target: Bos Taurus Pregnancy-associated glycoprotein 4 (Bos taurus); assay: as above
[43] = molecular target: Bos Taurus Pregnancy-associated glycoprotein 4 (Bos taurus); assay: 2D9 immuno-affinity chromatography of day 55 tissue extracts, LC-MS-MS of bands 3, 5, 6 & 7
[44] = molecular target: Bos Taurus Pregnancy-associated glycoprotein 6 (Bos taurus); assay: LC/MS/MS peptide sequencing of 2D9-purified PAGs from day 55 placental tissues
[45] = molecular target: Bos Taurus Pregnancy-associated glycoprotein 20 (Bos taurus); assay: as above
[46] = molecular target: Bos Taurus Pregnancy-associated glycoprotein 21 (Bos taurus); assay: as above
[47] = molecular target: Bos Taurus Pregnancy-associated glycoprotein 9 (Bos taurus); assay: as above
[48] = molecular target: Bos Taurus Pregnancy-associated glycoprotein 4 (Bos taurus); assay: as above
[49] = molecular target: Bos Taurus Pregnancy-associated glycoprotein 6 (Bos taurus); assay: 2D9 immunoaffinity column, day 55 caruncle, LC/MS/MS
[50] = molecular target: Bos Taurus Pregnancy-associated glycoprotein 17 (Bos taurus); assay: as above
[51] = molecular target: Bos Taurus Pregnancy-associated glycoprotein 21 (Bos taurus); assay: as above
[52] = molecular target: Bos Taurus Pregnancy-associated glycoprotein 9 (Bos taurus); assay: as above
[53] = molecular target: Bos Taurus Pregnancy-associated glycoprotein 4 (Bos taurus); assay: as above
[54] = molecular target: Bos Taurus Pregnancy-associated glycoprotein 21 (Bos taurus); assay: 2D9 immuno-affinity chromatography of day 55 tissue extracts, LC-MS-MS of bands 3, 5 & 7

Measured: binding

B1: monoclonal antibody 2D9 (antibody, mouse IgG1, kappa, V domains shown)
VH: QVQLQQSGAELMKPGASVKISCKATGYIFSNYWMEWVKQRPGHGLEWIGEILPGSDITNYNEKFKDKATFTADSSSNTAYMQLSSLTSEDSAVYYCARAGSGYYGVYYYAMDYWGQGTSVTVSS
VL: DVLMTQTPLSLPVSLGDQASISCRSRQSIVHSNGNTYLEWFLQKPGQSPKLLIYKVSNRFSGVPDRFSGSGSGTDFTLKISRVEAEDLGVYYCFQGSHVPLTFGAGTKLELKR
binds: [1] | [2] | [3] | [4] | [5] | [6] | [7] | [8] | [9] | [10] | [11] | [12] | [13] | [14] | [15] | [16] | [17] | [18] | [19] | [20] | [21] | [22] | [23] | [24] | [25] | [26] | [27] | [28] | [29] | [30] | [31] | [32] | [33] | [34] | [35] | [36] | [37] | [38] | [39] | [40] | [41] | [42] | [43] | [44] | [45] | [46] | [47] | [48] | [49] | [50] | [51] | [52] | [53] | [54]
